The results in this text go back to PubChem BioAssay AID1487 (National Center for Advancing Translational Sciences (NCATS), 2009).

The nature of the assay: qHTS Assay for Modulators of Lamin A Splicing. The settings on record: HeLa LMNA splicing GFP/RFP minigene ratio, 48 h. A digest of the protocol:
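Read-out is the ratio of GFP to DsRed2 object intensity, acquired by 488 nm laser-scanning cytometry on HeLa lamin A-EGFP minigene reporter cells. Compound incubation 48 hrs at 37 °C in Opti-MEM with 2% FBS; DMSO 0.5% final.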

[1] abbreviates: measured here: RFP viability control channel.
The mark [2] stands for this setting: measured here: GFP splicing reporter channel.

Molecules are shown by their SMILES. Values joined by “and” are separate entries in the source; they are usually repeats but may differ in a detail not shown here. Identical values can stand only once. The list shows a part of the results. These are further read-outs of the screen, such as a control signal, another cell line or another target. No call is given for them. Compounds called inactive in the main read-out are mostly missing here. The note in brackets gives the kind of curve behind each potency; many fits are weak.

One may read the AC50 as the concentration at which the activity in the assay is half-maximal. Take `O=C(N/N=C/c1ccco1)c1ccccc1OCc1ccccc1Cl`: under setting [1], the AC50 was 14.1 µM [rising, partial curve]. Regarding `CCc1ccc(-n2c(C)cc(/C=N/NC(=O)OC)c2C)cc1`, the AC50 under setting [1] is 35.5 µM [rising, single point].

With `Cc1ccc(S(=O)(=O)N2CCN(C(=O)c3c(C)nn(-c4ccccc4)c3Cl)CC2)cc1`, the AC50 runs as follows: under setting [2], 31.6 µM [rising, single point]; under setting [1], 35.5 µM [rising, single point]. `c1ccc(CNc2nc(-c3ccc4c(c3)OCO4)nc3ccccc23)cc1`: the half-maximal activity concentration (AC50) reads like this: under setting [2], 14.1 µM [falling, single point]; under setting [1], 25.1 µM [falling, single point]. Regarding `CCOc1cc(CNC(=O)c2ccc3nc(C(C)C)oc3c2)cc(OCC)c1OCC`, the AC50 under setting [2] is 35.5 µM [rising, single point]. On to `COc1ccc(N2CCN(S(=O)(=O)CCNC(=O)Cc3ccc(OC)c(OC)c3)CC2)cc1`, for which the AC50 under setting [1] was 0.00316 µM [falling, full curve, poor fit]. For the compound `O=[N+]([O-])/C=C/c1cn(Cc2ccc(F)cc2)c2ccccc12`, the AC50 is, setting by setting: under setting [2], 35.5 µM [falling, single point]; under setting [1], 25.1 µM [falling, single point]. With `Cc1ccc(NC(=O)C2CCCN2S(=O)(=O)c2ccc3c(c2)CCC(=O)N3)cc1Cl` (stereo unspecified), the AC50 under setting [1] was 11.2 µM [rising, single point].

For the compound `CCc1nc(N2CCCC2C(=O)O)c2oc3ccccc3c2n1` (stereo unspecified), the AC50 under setting [2] is 35.5 µM [rising, single point].

With `Cc1sc(NC(=O)CN(Cc2ccc(F)cc2)C(=O)C(C)(C)C)c(C(N)=O)c1C`, under setting [1], the AC50 is 35.5 µM [rising, single point]. Take `COc1ccc(-c2nc(CN3CCN(c4ncnc5ccccc45)CC3)c(C)o2)c(OC)c1`: the concentration at half-maximal activity (AC50) under setting [2] was 12.6 µM [falling, partial curve, poor fit] and the AC50 under setting [1] is 11.2 µM [falling, partial curve, poor fit].

With `O=C1c2ccccc2C(Nc2ccc(F)c(Cl)c2)N1Cc1ccco1` (stereo unspecified), the AC50 reads like this: under setting [2], 20 µM [rising, single point]; under setting [1], 28.2 µM [rising, single point]. For the compound `CCOC(=O)CN1C(c2ccc(O)cc2)Nc2ccc(Br)cc2C1c1ccccc1` (stereo unspecified), the AC50 is, setting by setting: under setting [2], 35.5 µM [falling, single point]; under setting [1], 35.5 µM [falling, single point]. For the compound `Cc1cccc2cc(CN(CC3CCCO3)C(c3nnnn3Cc3ccco3)C(C)C)c(=O)[nH]c12` (stereo unspecified), the AC50 under setting [1] is 10 µM [falling, partial curve].

As for `CCN(CC)c1nc(C#N)cc(-c2ccc(OC)cc2)n1`, under setting [1], the AC50 is 35.5 µM [rising, single point]. Turning to `O=C(NCCc1ccccc1)c1ccc(Cn2c(SCc3ccccc3F)nc3cccnc32)cc1`, the AC50 is 10 µM [falling, partial curve] under setting [2] and 10 µM [falling, partial curve] under setting [1].

With `O=C(CSc1nc(=O)n(Cc2ccncc2)c2c1CCC2)Nc1ccc(F)cc1F`, the AC50 under setting [2] was 0.316 µM [rising, full curve, poor fit]. In the case of `CCOc1cc2c3c(c1)C1(C(=O)N3C(C)(C)CC2C)C(C#N)=C(N)N2C(=C1C#N)Nc1ccccc12` (stereo unspecified), the AC50 under setting [1] is 0.158 µM [rising, full curve, poor fit]. On to `CCC1OC(=O)C(C)[C@@H](O[C@H]2C[C@@](C)(OC)C(O)C(C)O2)C(C)[C@@H](O[C@@H]2OC(C)CC(N(C)C)C2O)[C@@](C)(O)CC(C)C(=O)[C@@H](C)C(O)[C@]1(C)O` (stereo partly specified), for which the AC50 under setting [1] was 0.00562 µM [falling, full curve, poor fit].

For the compound `COc1cc(NC(=O)C(=O)NNC(=O)C2CCCCC2)c(OC)cc1Cl`, the AC50 under setting [1] was 0.0794 µM [rising, full curve, poor fit]. Regarding `COC(=O)N/N=C/c1cn(CCCOc2ccc(C)cc2)c2ccccc12`, the AC50 under setting [2] is 15.8 µM [rising, partial curve, poor fit] and the AC50 under setting [1] is 25.1 µM [rising, single point]. For `CSc1nc2c(sc3ccccc32)c(=O)n1Cc1ccc(C)cc1`, the half-maximal activity concentration (AC50) under setting [2] was 0.0501 µM [rising, full curve, poor fit]. `NNc1nc(-c2ccccc2Cl)nc2sc3c(c12)CCCC3`: the AC50 under setting [1] is 12.6 µM [rising, partial curve].

Turning to `Cc1ccc2c(CC(=O)N3CCN(S(=O)(=O)c4ccc5c(c4)OCCO5)CC3)coc2c1`, the AC50 is, setting by setting: under setting [2], 10 µM [rising, partial curve]; under setting [1], 15.8 µM [rising, partial curve].

Consider `CCc1nc(-c2ccc(-c3ccc(OC)cc3)nc2OC)no1`, for which the AC50 under setting [1] was 11.2 µM [rising, partial curve].

Regarding `COc1cccc(CNC(=O)C(=O)NCC(c2ccc3c(c2)OCO3)N2CCOCC2)c1` (stereo unspecified), the AC50 under setting [2] is 11.2 µM [falling, partial curve] and the AC50 under setting [1] is 11.2 µM [falling, partial curve, poor fit]. With `COC(=O)C1=C(C(=O)OC)N2C=CC=CC2(C)C(C(=O)OC)=C1C(=O)OC` (stereo unspecified), under setting [1], the AC50 is 0.224 µM [rising, full curve, poor fit].

As to `Cc1ccc(CNC(=O)c2cc(-c3ccc(C)cc3)nc3n[nH]c(-c4cccc([N+](=O)[O-])c4)c23)cc1`, the AC50 under setting [1] was 12.6 µM [falling, partial curve, poor fit]. With `OC1(c2cccnc2)CCN(Cc2nnnn2Cc2ccccc2)CC1`, the AC50 under setting [1] is 0.00501 µM [falling, full curve]. On the same count and under the same terms, the result for `CCc1nnc(NC(=O)CSc2nnc3c(C)cc4c(C)ccc(C)c4n23)s1` reads 3.98 µM [rising, full curve]; that for `Cc1nn(-c2cccc(Cl)c2)c(Cl)c1/C=N/NC(=O)c1cccnc1`, 0.112 µM [rising, full curve, poor fit]. For `CNC(=S)N(CCc1c(C)[nH]c2ccc(C)cc12)Cc1ccc(OC)c(OC)c1`, the AC50 under setting [1] was 11.2 µM [rising, partial curve]. As for `COc1ccc(NC(=O)Cc2c[nH]c3ccccc23)cc1S(=O)(=O)N1CCCCC1`, the AC50 under setting [1] is 28.2 µM [rising, single point]. Turning to `Nc1ncnc(Sc2ccc(Cl)cc2)c1[N+](=O)[O-]`, the AC50 under setting [1] was 22.4 µM [rising, partial curve, poor fit]. `Cc1c(C(=O)Nc2ccc(F)c(C(F)(F)F)c2)sc2nc(-c3ccccc3)cn12`: the AC50 runs as follows: under setting [2], 2.51 µM [falling, full curve, poor fit]; under setting [1], 3.16 µM [falling, partial curve, poor fit].

For the compound `O=C(N/N=C/c1ccc(Sc2ccccn2)o1)c1cc2ccccc2cc1O`, under setting [1], the AC50 was 22.4 µM [rising, single point]. For the compound `O=C1c2cccc3cccc(c23)C(=O)N1Cc1ccccc1`, under setting [2], the AC50 is 0.501 µM [rising, full curve, poor fit]. On to `CC(C)c1ccc(OCc2ccc(C(=O)N3CCN(c4ccccn4)CC3)cc2)cc1`, for which the AC50 reads like this: under setting [2], 35.5 µM [falling, single point]; under setting [1], 25.1 µM [falling, single point]. As to `CCCC(=O)N(c1ccc2oc(=O)sc2c1)S(=O)(=O)c1cccs1`, under setting [1], the AC50 was 3.98 µM [rising, partial curve].

For the compound `CC1=C(C(=O)Nc2cc(Cl)ccc2C)C(c2sccc2C)n2ncnc2N1` (stereo unspecified), the AC50 under setting [1] was 28.2 µM [rising, partial curve]. On to `COc1cccc(S(=O)(=O)NCc2ccc(C(=O)Nc3ccc(Cl)c(Cl)c3)cc2)c1`, for which the AC50 under setting [1] is 5.01 µM [rising, single point]. On to `CCc1ccc(NC(=O)CSc2nc3ccccc3c(=O)n2CCCC(=O)NCCCN2CCOCC2)cc1`, for which the half-maximal activity concentration (AC50) under setting [1] was 22.4 µM [falling, partial curve, poor fit]. Regarding `O=C(Nc1ccn(Cc2ccc(Cl)cc2)n1)c1ccc2c(c1)OCO2`, the half-maximal activity concentration (AC50) under setting [2] was 12.6 µM [rising, partial curve, poor fit] and the AC50 under setting [1] was 22.4 µM [rising, single point]. In the case of `COc1ccccc1CNC(=O)COC(=O)c1ccc(S(=O)(=O)N2CCCC2)cc1`, the AC50 reads like this: under setting [2], 1.12 µM [rising, full curve]; under setting [1], 2.82 µM [rising, partial curve]. As to `O=C(Nc1ccc(Cl)c(Cl)c1)Nc1ccccc1NS(=O)(=O)c1cccs1`, the AC50 under setting [1] is 25.1 µM [rising, single point]. For the compound `CC(C)(C)c1ccc2c(c1)N(CC(=O)NCCCN1CCN(c3ccccc3F)CC1)C(=O)CO2`, the AC50 runs as follows: under setting [2], 2.24 µM [falling, single point]; under setting [1], 0.355 µM [falling, partial curve, poor fit]. As to `CC(=O)N1CC(=O)N=C1SCC(=O)Nc1nc(-c2ccccc2)c(-c2ccccc2)s1`, the AC50 under setting [1] is 14.1 µM [rising, single point]. Consider `CC1CCN(C(=O)CSc2nc(N)c3c4c(sc3n2)CN(C)CC4)CC1`, for which the AC50 under setting [2] is 31.6 µM [rising, single point].

For `O=C(CN1C(=O)C2(SCC(=O)N2c2cccc(Cl)c2)c2ccccc21)NCc1ccccc1` (stereo unspecified), the AC50 under setting [2] was 3.16 µM [rising, full curve] and the AC50 under setting [1] is 11.2 µM [rising, partial curve]. For the compound `CC(C)(C)c1ccc(/C=C2\SC(=O)N(CCNC(=O)c3cccc(S(=O)(=O)N4CCOCC4)c3)C2=O)cc1`, under setting [1], the concentration at half-maximal activity (AC50) was 14.1 µM [rising, partial curve]. Turning to `CC(C)(C)c1ccc(OCC(=O)NCC2(N3CCOCC3)CCCCC2)cc1`, under setting [1], the AC50 is 7.08 µM [rising, partial curve]. Consider `Cc1cc(Cl)ccc1N(CC(=O)NCCSCc1ccco1)S(C)(=O)=O`, for which the AC50 is 4.47 µM [rising, partial curve] under setting [2] and 5.62 µM [rising, single point] under setting [1]. Take `C[n+]1cc2c3c(ccc2c2ccc4cc5c(cc4c21)OCO5)OCO3`: the AC50 under setting [2] was 3.16 µM [falling, full curve] and 2.51 µM [falling, full curve]; the AC50 under setting [1] was 398 nM [falling, full curve, poor fit] and 2.82 µM [falling, full curve].
